The values below come from PubChem BioAssay AID1487 (National Center for Advancing Translational Sciences (NCATS), 2009).

Molecules are shown by their SMILES. The list shows a part of the results. Shown are side measurements of this screen, not its main read-out; they come without a call. Most of these compounds were active or inconclusive in the main read-out, so they are no random draw. Potencies come from curve fits of mixed quality, noted in brackets.

The nature of the test: qHTS Assay for Modulators of Lamin A Splicing. The conditions noted are these: HeLa LMNA splicing GFP/RFP minigene ratio, 48 h. In a few lines:
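Read-out is the ratio of GFP to DsRed2 object intensity, acquired by 488 nm laser-scanning cytometry on HeLa lamin A-EGFP minigene reporter cells. Compound incubation 48 hrs at 37 °C in Opti-MEM with 2% FBS; DMSO 0.5% final.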
In general terms: In qHTS, concentration-response curves come from the screen itself.

[1] abbreviates: measured here: GFP splicing reporter channel.
Where [2] appears, read: measured here: RFP viability control channel.

For `CCc1oc2ccccc2c1C(=O)c1cc(I)c(O)c(I)c1`, the half-maximal activity concentration (AC50) is, setting by setting: under setting [1], 14.1 µM [rising, single point]; under setting [2], 35.5 µM [rising, partial curve, poor fit].
As to `CCN1CCN(C(c2ccccc2F)c2c(O)cc(C)n(CCOC)c2=O)CC1` (stereo not given), the concentration at half-maximal activity (AC50) was 0.282 µM [rising, partial curve, poor fit] under setting [1] and 0.501 µM [rising, full curve, poor fit] under setting [2].
`CCC(=O)N1CCc2cc(CNS(=O)(=O)c3ccc(Br)s3)ccc21`: under setting [1], the half-maximal activity concentration (AC50) is 0.501 µM [rising, single point].
Take `CCc1c(C)sc2c1CCN(C(=O)Nc1cc(C)ccc1OC)C2c1ccc(F)cc1` (stereo not given): under setting [2], the AC50 was 4.47 µM [rising, full curve, poor fit].
In the case of `CC(C)(C)c1ccc(S(=O)(=O)N2CCCCC2C(=O)NCc2ccccn2)cc1` (stereo not given), under setting [2], the half-maximal activity concentration (AC50) was 12.6 µM [rising, partial curve].
Consider `COc1ccc(/C=C2\CCc3ccccc3C2=O)cc1OC`, for which the concentration at half-maximal activity (AC50) reads like this: under setting [1], 2.82 µM [rising, full curve]; under setting [2], 11.2 µM [rising, partial curve].
`CCN(CC)S(=O)(=O)c1ccc(C(=O)NCc2ccc3[nH]c4c(c3c2)CCCC4)cc1`: the AC50 under setting [2] was 1.12 µM [rising, full curve].
With `Cc1ccc(C(C)C)cc2c(C)ccc1-2`, the AC50 under setting [2] is 35.5 µM [falling, single point].
Consider `CN(C)c1nc(N(C)C)n(C(=O)c2ccc(F)cc2)n1`, for which the AC50 under setting [2] was 0.0398 µM [rising, full curve, poor fit].
For `COc1cccc(N2C(C(C)=O)=NN(c3ccccc3)C2c2ccc(N3CCOCC3)cc2)c1` (stereo not given), the AC50 is, setting by setting: under setting [1], 35.5 µM [rising, single point]; under setting [2], 35.5 µM [rising, single point].
In the case of `S=C1NC2=C(CCCC2=C2SCCS2)C(c2ccccc2)N1` (stereo not given), under setting [1], the half-maximal activity concentration (AC50) was 25.1 µM [falling, partial curve, poor fit].
`O=C(CCNC(=O)Cn1ccc2ccccc2c1=O)NCCCN1CCN(c2ccccc2F)CC1`: the AC50 is 0.631 µM [falling, full curve, poor fit] under setting [1] and 0.501 µM [falling, full curve, poor fit] under setting [2].
For `COc1cc(/C=C(\NC(=O)c2ccccc2)C(=O)NCC(=O)O)c([N+](=O)[O-])cc1OC`, the concentration at half-maximal activity (AC50) under setting [1] was 2.51 µM [rising, partial curve, poor fit].
`CCOc1ccc(C(=O)OCc2nnc(-c3cccs3)o2)cc1OC`: the AC50 under setting [1] was 17.8 µM [rising, single point].
In the case of `COc1ccc(-c2noc(CCCc3ccccc3)n2)cc1OC`, the AC50 under setting [2] is 12.6 µM [rising, partial curve].
`O=C(NNC1CC(=O)N(c2ccccc2)C1=O)c1cccnc1` (stereo not given): under setting [2], the concentration at half-maximal activity (AC50) was 17.8 µM [falling, partial curve].
Turning to `CC(C)c1ccc(C2CC(c3ccc(Br)cc3)=NN2C(N)=S)cc1` (stereo not given), the AC50 under setting [2] is 7.94 µM [rising, partial curve, poor fit].
In the case of `Cc1ccc(C(C(=O)NC2CCCCC2)N(Cc2ccccc2)C(=O)Cc2c[nH]c3ccccc23)o1` (stereo not given), the AC50 under setting [2] was 14.1 µM [rising, partial curve].
Turning to `CC(NC(=O)COC(=O)/C(=C/c1cccs1)c1cccs1)c1ccccc1` (stereo not given), the half-maximal activity concentration (AC50) is 2.51 µM [rising, partial curve, poor fit] under setting [1] and 17.8 µM [rising, partial curve] under setting [2].
Regarding `CCOc1ccc(NC(=O)CC2C(=O)N(C)C(=S)N2CCCc2ccccc2)cc1` (stereo not given), the AC50 runs as follows: under setting [1], 22.4 µM [rising, single point]; under setting [2], 25.1 µM [rising, single point].
On to `O=C1CC(N2CCN(c3ccc(Cl)c(Cl)c3)CC2)C(=O)N1` (stereo not given), for which the AC50 under setting [2] is 11.2 µM [rising, partial curve].
As for `COc1ccc(C)cc1-n1c(=O)c2ccccc2c2ccccc2c1=O`, the half-maximal activity concentration (AC50) under setting [1] is 12.6 µM [falling, single point] and the AC50 under setting [2] was 31.6 µM [falling, single point].
`c1ccc(N2N=C(c3cccs3)CC2c2ccco2)cc1` (stereo not given): the AC50 runs as follows: under setting [1], 4.47 µM [rising, partial curve]; under setting [2], 35.5 µM [rising, single point].
Consider `CN(C)c1ccc(C(C#N)c2ccc(Cl)cc2)nn1` (stereo not given), for which the AC50 under setting [1] is 3.55 µM [rising, partial curve, poor fit].
For `CC(C)NC(=O)/C(C#N)=C/c1cccc(NC(=O)c2ccccc2Cl)c1`, the half-maximal activity concentration (AC50) under setting [2] was 35.5 µM [rising, single point].
As for `CCOC(=O)c1cccc(NC(=O)CSc2nc3cccnc3n2C)c1`, the AC50 under setting [1] is 5.62 µM [rising, full curve, poor fit] and the concentration at half-maximal activity (AC50) under setting [2] was 7.08 µM [rising, partial curve].
As for `CCn1c(/C(C#N)=C/c2ccccc2Cl)nc2ccccc21`, the AC50 under setting [1] is 35.5 µM [falling, single point].
In the case of `Cc1ccc2nc(SCc3nnc(-c4ccccc4Br)o3)[nH]c2c1`, the AC50 under setting [1] is 0.794 µM [falling, single point] and the concentration at half-maximal activity (AC50) under setting [2] is 0.1 µM [falling, partial curve, poor fit].
For the compound `CCc1nc(SCc2cc(=O)c3cc(C)ccc3[nH]2)n[nH]1`, the AC50 under setting [1] was 0.562 µM [rising, full curve].
As for `COC(=O)c1cc(=O)n(Cc2ccco2)c(=Nc2ccc(F)c(Cl)c2)s1`, the AC50 under setting [1] is 22.4 µM [falling, partial curve] and the AC50 under setting [2] was 35.5 µM [falling, single point].
Turning to `COc1cc(C2NCC(c3ccc(Cl)cc3Cl)c3c2[nH]c2ccccc32)cc(OC)c1OC` (stereo not given), the AC50 was 12.6 µM [rising, partial curve] under setting [1] and 22.4 µM [rising, partial curve] under setting [2].
In the case of `CC(N)c1ccc(Cl)cc1Cl` (stereo not given), the AC50 under setting [2] is 0.0501 µM [rising, full curve, poor fit].
The same measure, in the same setting: the result for `CCOC(=O)N1CCc2c(sc3nc(SC(C)C)n(N)c(=O)c23)C1` reads 35.5 µM [rising, single point].
In the case of `COc1ccc(-n2c(C)cc(C(=O)CSc3nnc(-c4cccs4)o3)c2C)cc1`, the AC50 is 0.794 µM [rising, full curve] under setting [1] and 2.51 µM [rising, full curve] under setting [2].
`COc1ccc(OC)c(NC(=O)CC2SC(=NCc3ccccc3)NC2=O)c1` (stereo not given): the AC50 under setting [2] is 0.316 µM [rising, full curve, poor fit].
Regarding `O=C(Cn1ccc(=O)[nH]c1=O)NCCO`, the AC50 by setting is: under setting [1], 0.0112 µM [falling, full curve, poor fit]; under setting [2], 0.0141 µM [falling, full curve, poor fit].
Turning to `COc1ccc(C(=O)NCC(c2ccc(N(C)C)cc2)N2CCc3ccccc32)cc1` (stereo not given), the AC50 under setting [2] was 35.5 µM [falling, single point].
Consider `CCOC(=O)c1ccc(N2C(=O)c3n[nH]c(-c4ccco4)c3C2c2ccc([N+](=O)[O-])cc2)cc1` (stereo not given), for which the half-maximal activity concentration (AC50) under setting [2] is 35.5 µM [rising, single point].
For `Cc1ccnc(NS(=O)(=O)c2ccc(NC(=O)c3cc(-c4ccc(Br)cc4)nc4ccccc34)cc2)n1`, the AC50 under setting [2] is 1 µM [rising, partial curve].
On the same count and under the same terms, with `CS/C(=N\S(=O)(=O)c1cccs1)Nc1ccc(F)c(Cl)c1` the figure was 31.6 µM [rising, single point].
Turning to `COc1ccccc1-c1ccc(/C=C2/C=C(CC(C)C)OC2=O)o1`, the AC50 is, setting by setting: under setting [1], 31.6 µM [rising, single point]; under setting [2], 22.4 µM [rising, single point].
In the case of `Cc1ccc2sc(NNC(=O)c3ccc4c(c3)OCCO4)nc2c1C`, the AC50 under setting [2] was 31.6 µM [rising, single point].
Regarding `CCC(Oc1ccccc1)C(=O)Nc1ccc(OCc2cc(=O)n3ccccc3n2)cc1` (stereo not given), the concentration at half-maximal activity (AC50) under setting [2] was 17.8 µM [rising, partial curve, poor fit].
`Cc1cccc(NC(=O)c2ccc(COc3cccc4ccccc34)o2)n1`: the AC50 was 8.91 µM [rising, partial curve, poor fit] under setting [1] and 14.1 µM [rising, partial curve] under setting [2].
Consider `Cc1ccc(CN2CCN(C3CCN(C(=O)Nc4ccccc4C(F)(F)F)CC3)C(=O)C2=O)cc1`, for which the half-maximal activity concentration (AC50) under setting [2] is 35.5 µM [rising, single point].
With `Cc1cccc(C(=O)NC(=S)N2CCc3ccccc3C2)c1`, under setting [2], the AC50 was 10 µM [rising, partial curve].
For `COc1cccc(Nc2ncc3nc(-c4ccccc4)c(=O)n(Cc4cccs4)c3n2)c1`, the AC50 reads like this: under setting [1], 22.4 µM [falling, partial curve, poor fit]; under setting [2], 22.4 µM [falling, partial curve, poor fit].
In the case of `Cc1ccc(-c2csc(N/N=C/c3ccco3)n2)c(C)c1`, under setting [2], the AC50 was 3.98 µM [rising, full curve].
On to `O=C(Nc1cccc(NS(=O)(=O)c2ccc(S(=O)(=O)NC3CC3)cc2)c1)c1ccccn1`, for which the half-maximal activity concentration (AC50) reads like this: under setting [1], 8.91 µM [rising, partial curve, poor fit]; under setting [2], 12.6 µM [rising, partial curve, poor fit].
As to `CC(C)NC(=O)C1CCCN(c2ncnc3c2nc2n3CCCCC2)C1` (stereo not given), the half-maximal activity concentration (AC50) under setting [1] was 0.0224 µM [falling, full curve, poor fit].
As for `CCCCc1nc2ccccc2c(NC(=O)CN2CCN(C)CC2)c1CCC`, the AC50 under setting [2] is 0.0158 µM [falling, full curve, poor fit].
Regarding `CCc1ccc(C2=NNC(=Nc3cccc(S(=O)(=O)N(C)C)c3)SC2)cc1`, the AC50 under setting [2] was 7.08 µM [rising, partial curve].
Turning to `CSCc1nnc(NC(=O)c2ccc(S(=O)(=O)N(CC(C)C)CC(C)C)cc2)o1`, under setting [2], the concentration at half-maximal activity (AC50) is 22.4 µM [falling, single point].
`O=S(=O)(c1ccc(-c2csc(-c3cccnc3)n2)cc1)N1CCOCC1`: the AC50 under setting [2] was 3.55 µM [falling, single point].
With `CC(CNS(=O)(=O)c1ccc2c(c1)CC(=O)N2C)c1ccccc1` (stereo not given), the half-maximal activity concentration (AC50) is 14.1 µM [rising, partial curve, poor fit] under setting [1] and 35.5 µM [rising, partial curve, poor fit] under setting [2].

As usually defined, the AC50 is the concentration at which the activity in the assay is half-maximal.
